Laboratory results reported in publication PMC8761896 (2021).

Legend:
VRC01gl_Q39LH_Y91FH = assay: SPR
VRC01gl_Q39LH_ins107aL = assay: SPR

B1: eOD-GT6 (other)
chain: DTITLPCRPAPPPHCSSNITGLILTRDGGVSNDETEIFRPSGGDMRDIARCQIAGTVVSTQLFLNGSLAEEEVVIRSVDFRDNAKSICVQLATSVEIACTGAGHCAISRAKWANTLKQIASKLREQFGARTIIFKQSSGGDPEFVTHSFNCGGEFFYCDSTQLFASTWFAST
- Kd (VRC01gl_Q39LH_Y91FH): 0.0103 µM
- koff (VRC01gl_Q39LH_Y91FH): 0.000541 s⁻¹
- Kd (VRC01gl_Q39LH_ins107aL): 0.0135 µM
- koff (VRC01gl_Q39LH_ins107aL): 0.000569 s⁻¹
